PubChem BioAssay AID504804, Drosophila RNAi Screening Center | 2011

Aim: 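dsRNAs that improve Kc cell survival under doxorubicin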 (primary screen)
Cells: Drosophila Kc cells
Reagents: long dsRNA against Drosophila genes, 0.5 µg dsRNA per well
Duration: 96 h (48 h knock-down, then 48 h drug)
Treatment: doxorubicin 5 µg/ml for 48 h, added 48 h after dsRNA
Measurement: 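Viability measured as cellular ATP by luminescence after 48 h knock-down then 48 h doxorubicin at 5 µg/ml; unnormalised plate counts for each replicate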
Direction: raw ATP luminescence: higher = more viable cells, protection from doxorubicin
Hit rule: 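Active when both duplicate wells lie at least 2 SD above the plate mean and protection is confirmed by rescreening and independent dsRNAs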
The screen tested about 19,000 reagents; shown is a random part of those with a known target gene and a result. In the full data, 47 (0.25%) were called active. 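Signals are raw, not normalised; exact z-scores behind calls not deposited; actives needed confirmation, so some wells reaching 2 SD are inactive.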 The numbers tell different reagents against one gene apart. Names joined by + are all predicted targets of the reagent.

gene,reagent,SD above plate mean,"raw ATP luminescence, replicate 1","raw ATP luminescence, replicate 2",Outcome
"PheRS-m (Phenylalanyl-tRNA synthetase, mitochondrial)",1,,57223,42953,inactive
Afti (Aftiphilin),1,,54307,24967,inactive
CG14314,1,,65250,88820,inactive
CG33792,1,,94620,1.07e5,inactive
CG18577,1,,50880,47940,inactive
CG15142,1,,66277,68707,inactive
"Brca2 (BRCA2, DNA repair associated)",1,,52977,53237,inactive
"Brca2 (BRCA2, DNA repair associated)",2,,53033,58147,inactive
CG33937 (retired record),1,,63390,59887,inactive
CanA1 (Calcineurin A1),1,,59700,46630,inactive
CG10793,1,,52440,71050,inactive
Rh50,1,,37920,35000,inactive
CG14932,1,,19747,39850,inactive
CG13049,1,,47400,42687,inactive
Sf3b5 (Splicing factor 3b subunit 5),1,,47983,47140,inactive
CecC (Cecropin C),1,,39000,16000,inactive
elfless,1,,45320,58997,inactive
CG11396,1,,80947,60263,inactive
LBR (Lamin B receptor),1,,32547,29507,inactive
CG44098,1,,72820,55410,inactive
CG44098,2,,64630,68843,inactive
Cubn2 (Cubilin 2),1,,69117,70870,inactive
obst-E (obstructor-E),1,,1.05e5,53640,inactive
Pex1 (Peroxin 1),1,,24450,20523,inactive
CG6026,1,,34380,38990,inactive
CG5509,1,,51650,77683,inactive
ND-B16.6 (NADH dehydrogenase (ubiquinone) B16.6 subunit),1,,30510,33660,inactive
CG14104,1,,68410,63027,inactive
CG6660,1,,51383,65983,inactive
sut3 (sugar transporter 3),1,,47930,79577,inactive
nac (neuronally altered carbohydrate),1,,58930,46563,inactive
mthl5 (methuselah-like 5),1,,49990,50253,inactive
Pdxk (Pyridoxal kinase),1,,82863,68463,inactive
CG42671,1,,86923,78453,inactive
CG42671,2,,72317,71287,inactive
Pex3 (Peroxin 3),1,,33170,35537,inactive
CG11231 (retired record),1,,52930,58470,inactive
Gr22e (Gustatory receptor 22e),1,,2.28e5,3.51e5,inactive
Pde6 (Phosphodiesterase 6),1,,91190,26923,inactive
Pde6 (Phosphodiesterase 6),2,,66320,68710,inactive
Pde6 (Phosphodiesterase 6),3,,66990,57860,inactive
Tim17b1,1,,61323,67897,inactive
CG33342 (HDC15381),1,,1.94e5,2.27e5,inactive
Atf3 (Activating transcription factor 3),1,,15650,15600,inactive
Grip (Glutamate receptor interacting protein),1,,17670,17440,inactive
Grip (Glutamate receptor interacting protein),2,,36270,35970,inactive
CNPYb (Canopy b),1,,20410,22747,inactive
TM9SF3 (Transmembrane 9 superfamily protein member 3),1,,62013,74253,inactive
Acox57D-p (acyl-Coenzyme A oxidase at 57D proximal),1,,68193,57537,inactive
Pgant35A (Polypeptide N-acetylgalactosaminyltransferase 35A),1,2 to 3 SD above plate mean,93903,1.36e5,active
Rbsn-5 (Rabenosyn-5),1,,1.24e5,60443,inactive
Mst57Da (Male-specific RNA 57Da),1,,60870,57730,inactive
CG34278,1,,2.29e5,2.74e5,inactive
Jon99Fii (Jonah 99Fii),1,,44350,43290,inactive
rpr (reaper),1,,62377,58807,inactive
Fatp (retired record),1,,79703,81957,inactive
amos (absent MD neurons and olfactory sensilla),1,,37877,27557,inactive
CG6686,1,,89907,48590,inactive
CG6770,1,,75780,74420,inactive
RhoGAP71E (Rho GTPase activating protein at 71E),1,,30403,19937,inactive
RhoGAP71E (Rho GTPase activating protein at 71E),2,,28487,29230,inactive
RhoGAP71E (Rho GTPase activating protein at 71E),3,,74183,75353,inactive
CG14511,1,,28350,28460,inactive
Rab4 + CG42239,1,,1.25e5,84380,inactive
shps (sheepish),1,,68570,65720,inactive
pes (peste),1,,60603,77923,inactive
CG17029,1,,1.03e5,75813,inactive
Phae1 (Phaedra 1),1,,55683,76350,inactive
Alr (Augmenter of liver regeneration),1,,2.01e5,2.60e5,inactive
Ugt303B2 (UDP-glycosyltransferase family 303 member B2),1,,69500,61820,inactive
CG3909,1,,45487,45913,inactive
CG14102,1,,61010,67033,inactive
Grl62a (Gustatory receptor-like 62a),1,,1.74e5,1.67e5,inactive
corn (cornetto),1,,57300,37453,inactive
CG5883,1,,86673,71387,inactive
cype (cyclope),1,,23900,23460,inactive
GATAe,1,,30913,57207,inactive
CG8028,1,,3.71e5,2.96e5,inactive
CG8526,1,,56360,58483,inactive
jhamt (juvenile hormone acid methyltransferase),1,,53117,74360,inactive
Targ1 (Terminal ADP-ribose protein glycohydrolase 1),1,,60237,53340,inactive
Rsph9 (Radial spoke head protein 9),1,,3.42e5,2.61e5,inactive
Cox17 (Cytochrome c oxidase copper chaperone COX17),1,,3.29e5,2.88e5,inactive
CG13711,1,,84620,76197,inactive

A run of entries of the results above, as a working copy:
gene,reagent,SD above plate mean,"raw ATP luminescence, replicate 1","raw ATP luminescence, replicate 2",Outcome
Cubn2 (Cubilin 2),1,,69117,70870,inactive
obst-E (obstructor-E),1,,1.05e5,53640,inactive
Pex1 (Peroxin 1),1,,24450,20523,inactive
CG6026,1,,34380,38990,inactive
CG5509,1,,51650,77683,inactive
ND-B16.6 (NADH dehydrogenase (ubiquinone) B16.6 subunit),1,,30510,33660,inactive
CG14104,1,,68410,63027,inactive
